Usually GI50 stands for the concentration that inhibits growth by half. Read a high GI50 as lower sensitivity of the cells.

In ChEMBL document CHEMBL3351767, “The discovery of Polo-like kinase 4 inhibitors: design and optimization of spiro[cyclopropane-1,3'[3H]indol]-2'(1'H).ones as orally bioavailable antitumor agents” (J Med Chem, 2015) one finds GI50 data, which are given here for one molecule.

In this experiment the test system is MDA-MB-231. The experiment can be described thus: Cytotoxicity against human MDA-MB-231 cells after 5 days by SRB assay. It is filed as functional. The note with it: MDA-MB-231, 120 h. A general note: The SRB assay estimates cell density from bound dye.

With `CNC(=O)c1ccccc1Sc1ccc2c(/C=C/c3ccccn3)n[nH]c2c1` [AXITINIB], the GI50 turned out to be 11 µM.
